This is an account of results in the supplement of paper PMC12819154, “High-throughput peptide-centric local stability assay extends protein–ligand identification to membrane proteins, tissues and bacteria” (Nature Structural & Molecular Biology, 2025).

By UniProt entry, the sequences of proteins in these tests, tags left out. Where a name states a change or a piece, a line headed by the entry shows the natural chain unless it says otherwise.
UniProt P0C6C1: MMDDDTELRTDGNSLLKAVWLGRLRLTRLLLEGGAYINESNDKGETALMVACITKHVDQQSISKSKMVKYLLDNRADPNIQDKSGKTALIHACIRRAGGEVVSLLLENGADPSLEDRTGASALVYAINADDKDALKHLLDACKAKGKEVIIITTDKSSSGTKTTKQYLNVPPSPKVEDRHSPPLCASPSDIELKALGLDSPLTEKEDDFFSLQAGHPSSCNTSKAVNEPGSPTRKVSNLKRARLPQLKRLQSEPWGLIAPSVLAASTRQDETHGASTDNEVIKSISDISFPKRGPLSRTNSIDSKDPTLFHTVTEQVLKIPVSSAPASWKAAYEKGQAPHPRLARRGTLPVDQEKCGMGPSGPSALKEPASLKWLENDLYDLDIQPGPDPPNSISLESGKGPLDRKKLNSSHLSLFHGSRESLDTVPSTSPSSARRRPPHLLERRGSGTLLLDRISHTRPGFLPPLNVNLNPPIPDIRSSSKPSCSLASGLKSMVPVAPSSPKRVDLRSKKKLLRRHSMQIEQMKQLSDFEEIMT
UniProt P01718, whole entry: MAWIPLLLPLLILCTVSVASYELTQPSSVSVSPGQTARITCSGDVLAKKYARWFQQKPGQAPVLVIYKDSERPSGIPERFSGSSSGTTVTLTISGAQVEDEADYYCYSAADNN
UniProt P13995: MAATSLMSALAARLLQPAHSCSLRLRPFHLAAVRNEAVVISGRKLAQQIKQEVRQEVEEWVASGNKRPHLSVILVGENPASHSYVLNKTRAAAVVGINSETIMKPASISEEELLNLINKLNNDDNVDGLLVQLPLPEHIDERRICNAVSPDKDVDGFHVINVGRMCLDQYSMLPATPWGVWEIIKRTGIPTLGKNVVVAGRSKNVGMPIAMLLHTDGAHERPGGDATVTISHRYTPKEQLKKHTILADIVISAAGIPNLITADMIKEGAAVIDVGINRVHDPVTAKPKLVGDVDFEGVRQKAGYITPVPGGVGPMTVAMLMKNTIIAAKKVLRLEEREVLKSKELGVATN
UniProt P08567: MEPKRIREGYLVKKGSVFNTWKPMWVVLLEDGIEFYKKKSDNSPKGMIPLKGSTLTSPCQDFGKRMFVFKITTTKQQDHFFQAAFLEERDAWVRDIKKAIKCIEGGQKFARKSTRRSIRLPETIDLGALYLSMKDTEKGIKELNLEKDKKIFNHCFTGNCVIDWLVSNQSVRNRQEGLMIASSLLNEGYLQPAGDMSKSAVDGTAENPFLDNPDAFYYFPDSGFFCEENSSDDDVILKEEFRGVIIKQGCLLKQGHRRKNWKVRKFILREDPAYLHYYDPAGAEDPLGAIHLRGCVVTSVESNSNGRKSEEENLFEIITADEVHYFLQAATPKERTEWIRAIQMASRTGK
UniProt P13727: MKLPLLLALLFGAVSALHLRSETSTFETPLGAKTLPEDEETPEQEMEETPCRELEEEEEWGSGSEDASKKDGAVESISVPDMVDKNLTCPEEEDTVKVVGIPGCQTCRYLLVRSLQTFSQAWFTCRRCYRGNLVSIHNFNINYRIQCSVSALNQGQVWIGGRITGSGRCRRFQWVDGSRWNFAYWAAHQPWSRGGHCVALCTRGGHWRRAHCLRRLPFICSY
UniProt P07954: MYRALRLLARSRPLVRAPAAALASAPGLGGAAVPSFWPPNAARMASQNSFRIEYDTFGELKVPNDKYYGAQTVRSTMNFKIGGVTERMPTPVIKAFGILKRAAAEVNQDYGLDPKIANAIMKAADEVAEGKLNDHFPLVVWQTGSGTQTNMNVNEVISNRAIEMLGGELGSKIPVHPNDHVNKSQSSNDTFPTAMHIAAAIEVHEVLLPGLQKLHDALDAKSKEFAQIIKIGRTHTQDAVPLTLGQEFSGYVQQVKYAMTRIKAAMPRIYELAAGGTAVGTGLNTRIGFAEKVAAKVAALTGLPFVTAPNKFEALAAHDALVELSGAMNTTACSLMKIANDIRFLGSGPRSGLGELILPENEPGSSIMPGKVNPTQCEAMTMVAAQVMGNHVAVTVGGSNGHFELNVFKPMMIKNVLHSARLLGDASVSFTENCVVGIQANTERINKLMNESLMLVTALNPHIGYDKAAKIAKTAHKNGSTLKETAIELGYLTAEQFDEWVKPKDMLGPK
UniProt P08575: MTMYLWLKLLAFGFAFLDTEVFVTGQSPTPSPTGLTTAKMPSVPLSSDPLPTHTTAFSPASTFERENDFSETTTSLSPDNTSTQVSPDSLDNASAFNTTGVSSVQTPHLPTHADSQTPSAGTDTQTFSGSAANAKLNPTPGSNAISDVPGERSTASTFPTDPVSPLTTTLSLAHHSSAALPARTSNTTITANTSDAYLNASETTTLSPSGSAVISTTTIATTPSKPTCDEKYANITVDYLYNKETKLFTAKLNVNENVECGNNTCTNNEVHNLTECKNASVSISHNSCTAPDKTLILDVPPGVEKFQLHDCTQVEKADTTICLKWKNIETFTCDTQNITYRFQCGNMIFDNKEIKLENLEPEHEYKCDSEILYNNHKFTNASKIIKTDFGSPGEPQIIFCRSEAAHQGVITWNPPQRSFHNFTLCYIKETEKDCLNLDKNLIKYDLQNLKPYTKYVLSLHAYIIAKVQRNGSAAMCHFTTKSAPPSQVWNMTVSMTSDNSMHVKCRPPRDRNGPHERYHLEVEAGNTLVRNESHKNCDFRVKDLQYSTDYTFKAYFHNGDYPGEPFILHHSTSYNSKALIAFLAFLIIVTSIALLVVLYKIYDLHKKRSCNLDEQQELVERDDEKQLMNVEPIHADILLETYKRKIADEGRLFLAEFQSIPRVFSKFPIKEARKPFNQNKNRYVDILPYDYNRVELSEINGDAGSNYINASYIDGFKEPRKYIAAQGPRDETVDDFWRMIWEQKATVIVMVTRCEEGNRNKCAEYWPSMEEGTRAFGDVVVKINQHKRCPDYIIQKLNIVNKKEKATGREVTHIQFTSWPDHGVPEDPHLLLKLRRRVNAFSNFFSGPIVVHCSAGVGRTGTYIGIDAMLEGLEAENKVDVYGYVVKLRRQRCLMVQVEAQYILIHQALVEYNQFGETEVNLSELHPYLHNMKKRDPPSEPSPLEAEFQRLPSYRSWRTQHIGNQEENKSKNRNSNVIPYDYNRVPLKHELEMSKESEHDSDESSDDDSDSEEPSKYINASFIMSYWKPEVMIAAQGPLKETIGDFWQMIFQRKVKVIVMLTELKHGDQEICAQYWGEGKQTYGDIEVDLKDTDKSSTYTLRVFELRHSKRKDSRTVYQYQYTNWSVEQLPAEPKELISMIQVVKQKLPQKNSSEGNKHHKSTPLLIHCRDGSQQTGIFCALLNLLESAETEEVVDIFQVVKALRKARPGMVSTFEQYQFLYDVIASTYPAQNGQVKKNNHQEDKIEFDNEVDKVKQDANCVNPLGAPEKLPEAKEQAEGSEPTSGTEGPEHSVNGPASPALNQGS
UniProt P05937: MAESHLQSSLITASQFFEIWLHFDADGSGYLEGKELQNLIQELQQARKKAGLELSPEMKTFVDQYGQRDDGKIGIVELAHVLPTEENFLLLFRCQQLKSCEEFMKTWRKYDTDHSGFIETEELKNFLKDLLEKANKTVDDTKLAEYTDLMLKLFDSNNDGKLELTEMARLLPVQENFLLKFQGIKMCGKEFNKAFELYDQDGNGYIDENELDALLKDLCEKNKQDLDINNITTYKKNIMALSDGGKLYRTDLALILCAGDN
UniProt P04424, whole entry: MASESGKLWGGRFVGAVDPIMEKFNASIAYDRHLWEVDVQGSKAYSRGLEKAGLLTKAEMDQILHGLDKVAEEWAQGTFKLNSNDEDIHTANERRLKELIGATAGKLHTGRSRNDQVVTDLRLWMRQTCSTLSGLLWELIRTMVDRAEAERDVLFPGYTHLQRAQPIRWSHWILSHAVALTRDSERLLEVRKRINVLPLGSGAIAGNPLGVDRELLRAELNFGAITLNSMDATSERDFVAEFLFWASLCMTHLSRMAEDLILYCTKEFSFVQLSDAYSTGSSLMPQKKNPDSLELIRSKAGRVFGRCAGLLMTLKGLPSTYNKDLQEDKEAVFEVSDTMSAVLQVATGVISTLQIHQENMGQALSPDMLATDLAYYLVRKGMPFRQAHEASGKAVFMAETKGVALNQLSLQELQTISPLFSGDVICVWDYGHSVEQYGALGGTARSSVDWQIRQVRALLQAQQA
UniProt P12236: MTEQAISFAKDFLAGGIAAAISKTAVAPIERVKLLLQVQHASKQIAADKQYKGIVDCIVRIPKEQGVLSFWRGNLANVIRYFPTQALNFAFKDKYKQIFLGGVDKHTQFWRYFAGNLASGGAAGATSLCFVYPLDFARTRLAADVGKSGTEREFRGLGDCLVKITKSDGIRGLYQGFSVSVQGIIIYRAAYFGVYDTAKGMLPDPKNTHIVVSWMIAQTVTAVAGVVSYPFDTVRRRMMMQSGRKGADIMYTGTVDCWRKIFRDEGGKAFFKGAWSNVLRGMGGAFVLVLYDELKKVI
UniProt P0DJD1, whole entry: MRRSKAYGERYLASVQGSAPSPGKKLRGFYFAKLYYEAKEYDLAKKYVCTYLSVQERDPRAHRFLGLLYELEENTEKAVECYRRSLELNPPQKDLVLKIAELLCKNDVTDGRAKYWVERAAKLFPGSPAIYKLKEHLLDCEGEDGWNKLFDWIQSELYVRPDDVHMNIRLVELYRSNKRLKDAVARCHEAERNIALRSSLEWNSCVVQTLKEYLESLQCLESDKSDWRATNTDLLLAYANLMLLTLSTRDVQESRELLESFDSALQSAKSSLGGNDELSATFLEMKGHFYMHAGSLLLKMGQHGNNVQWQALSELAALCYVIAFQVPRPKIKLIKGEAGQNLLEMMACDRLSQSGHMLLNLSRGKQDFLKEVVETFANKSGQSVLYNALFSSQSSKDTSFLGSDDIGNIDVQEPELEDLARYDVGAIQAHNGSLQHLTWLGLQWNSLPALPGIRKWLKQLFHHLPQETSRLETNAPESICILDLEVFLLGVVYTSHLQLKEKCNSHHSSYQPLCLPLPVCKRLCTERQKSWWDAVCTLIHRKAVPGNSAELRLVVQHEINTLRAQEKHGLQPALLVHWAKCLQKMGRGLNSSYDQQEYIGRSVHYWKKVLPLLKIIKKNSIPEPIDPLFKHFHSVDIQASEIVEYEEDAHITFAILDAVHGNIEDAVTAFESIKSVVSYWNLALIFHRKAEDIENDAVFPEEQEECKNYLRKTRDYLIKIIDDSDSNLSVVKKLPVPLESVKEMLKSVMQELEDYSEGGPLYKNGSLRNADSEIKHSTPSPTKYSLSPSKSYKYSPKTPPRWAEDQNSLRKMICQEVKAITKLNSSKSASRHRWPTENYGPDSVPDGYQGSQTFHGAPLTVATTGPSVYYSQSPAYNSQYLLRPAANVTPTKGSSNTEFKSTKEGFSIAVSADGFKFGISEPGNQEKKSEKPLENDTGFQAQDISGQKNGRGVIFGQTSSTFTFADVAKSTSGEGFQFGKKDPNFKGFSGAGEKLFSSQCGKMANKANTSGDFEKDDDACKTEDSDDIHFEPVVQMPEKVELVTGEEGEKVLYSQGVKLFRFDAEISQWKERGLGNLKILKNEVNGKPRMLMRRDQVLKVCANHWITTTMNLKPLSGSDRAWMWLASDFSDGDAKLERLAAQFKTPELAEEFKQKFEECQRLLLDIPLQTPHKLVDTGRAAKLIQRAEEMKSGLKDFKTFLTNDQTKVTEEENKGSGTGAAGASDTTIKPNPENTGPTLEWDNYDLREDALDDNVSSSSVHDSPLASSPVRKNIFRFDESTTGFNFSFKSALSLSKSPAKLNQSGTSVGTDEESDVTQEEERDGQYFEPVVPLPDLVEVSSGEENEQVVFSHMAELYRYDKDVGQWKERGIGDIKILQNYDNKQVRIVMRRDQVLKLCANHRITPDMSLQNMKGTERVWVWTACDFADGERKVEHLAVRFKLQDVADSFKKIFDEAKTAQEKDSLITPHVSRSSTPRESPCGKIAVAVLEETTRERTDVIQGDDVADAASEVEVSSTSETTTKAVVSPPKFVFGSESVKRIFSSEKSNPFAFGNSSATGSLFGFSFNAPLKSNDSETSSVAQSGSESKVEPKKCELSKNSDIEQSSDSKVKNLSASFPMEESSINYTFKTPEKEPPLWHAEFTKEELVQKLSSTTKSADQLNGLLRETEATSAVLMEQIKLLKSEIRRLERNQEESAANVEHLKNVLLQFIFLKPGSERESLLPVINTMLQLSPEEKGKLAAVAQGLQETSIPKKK

The list shows a part of the results. Most values lie at the level of the controls, where differences are scatter.

Compound in the assay: Cc1nc(Nc2ncc(C(=O)Nc3c(C)cccc3Cl)s2)cc(N2CCN(CCO)CC2)n1 [dasatinib]
Description: log2 fold change of tryptic peptide abundance, ligand vs vehicle (limited proteolysis) (log2 ratio); higher = more trypsin-susceptible (destabilized). Conditions: ligand concentration: 5 uM; sample: K562 cleared lysate.
Turning to “UniProt P0C6C1 (peptide sequence: SISDISFPK, peptide start residue: 284)”, the log2 fold change was found to be 0.068.
For “UniProt P01718 (peptide sequence: KYARWFQQK, peptide start residue: 49)”, the log2 fold change came to 0.289.
Next, “MTHFD2 (peptide sequence: EGAAVIDVGINRVHDPVTAKPK, peptide start residue: 267) (UniProt P13995)”: 0.736.
Turning to “PLEK (peptide sequence: ELNLEKDKK, peptide start residue: 142) (UniProt P08567)”, the log2 fold change came to 0.434.
Turning to “PRG2 (peptide sequence: VVGIPGCQTCR, peptide start residue: 98) (UniProt P13727)”, the log2 fold change was -0.0372.
Regarding “FH (peptide sequence: AADEVAEGK, peptide start residue: 123) (UniProt P07954)”, the log2 fold change is -0.0797.
With “PTPRC (peptide sequence: NNHQEDKIEFDNEVDKVK, peptide start residue: 1239) (UniProt P08575)”, the log2 fold change was -0.407.
As for “CALB1 (peptide sequence: LAEYTDLMLK, peptide start residue: 143) (UniProt P05937)”, the figure is 0.247.
As to “ASL (peptide sequence: CAGLLMTLK, peptide start residue: 307) (UniProt P04424)”, the log2 fold change was determined as 0.166.
For the target “SLC25A6 (peptide sequence: GLGDCLVK, peptide start residue: 156) (UniProt P12236)”, the log2 fold change is -0.129.
As for “UniProt P0DJD1 (peptide sequence: YLASVQGSAPSPGKK, peptide start residue: 11)”, the figure is 0.4.
